Source: patent EP0609437B1, “NOVEL SPHINGOGLYCOLIPID AND USE THEREOF” (KIRIN BEER KABUSHIKI KAISHA, priority 1991, dated 1993)
Some of these results come from one statement about several compounds together.

Tested on: B16 melanoma cells
Assay: Cytotoxicity, 3H-TdR uptake of B16 melanoma cells
Assay type: cell-based, mouse
Details: final concentration up to 10 µg/ml, 42 hours culture plus 8 hours with 3H-TdR

CCCCCCCCCCCCCCCCCCCCCCCC[C@@H](O)C(=O)N[C@@H](CO[C@H]1O[C@H](CO)[C@H](O)[C@H](O)[C@H]1O)[C@H](O)[C@H](O)CCCCCCCCCCCCCCC [Compound 26, (2S,3S,4R)-1-(α-D-galactopyranosyloxy)-2-[(R)-2-hydroxyhexacosanoylamino]-3,4-nonadecanediol]
influence on the proliferation of the cells (uptake of ^3H-TdR): None of the compounds even in the final concentration of 10 µg/ml influenced the proliferation of the cells

CCCCCCCCCCCCCCCCCCCCCCCC[C@@H](O)C(=O)N[C@@H](CO[C@H]1O[C@H](CO)[C@H](O)[C@H](O)[C@H]1O)[C@H](O)[C@H](O)CCCCCCCCCCCCCCCC [Compound 27, (2S,3S,4R)-1-(α-D-galactopyranosyloxy)-2-[(R)-2-hydroxyhexacosanoylamino]-3,4-icosanediol]
influence on the proliferation of the cells (uptake of ^3H-TdR): None of the compounds even in the final concentration of 10 µg/ml influenced the proliferation of the cells

CCCCCCCCCCCCCCCCCCCCCC[C@H](O)C(=O)N[C@@H](CO[C@H]1O[C@H](CO)[C@H](O)[C@H](O)[C@H]1O)[C@H](O)[C@H](O)CCCCCCCCCCCCC [Compound 28, (2S,3S,4R)-1-(α-D-galactopyranosyloxy)-2-[(S)-2-hydroxytetracosanoylamino]-3,4-heptadecanediol]
influence on the proliferation of the cells (uptake of ^3H-TdR): None of the compounds even in the final concentration of 10 µg/ml influenced the proliferation of the cells

CCCCCCCC/C=C\CCCCCCCC(=O)N[C@@H](CO[C@H]1O[C@H](CO)[C@H](O)[C@H](O)[C@H]1O)[C@H](O)CCCCCCCCCCCCCCC [Compound 29, (2S,3R)-1-(α-D-galactopyranosyloxy)-2-oleoylamino-3-octadecanol]
influence on the proliferation of the cells (uptake of ^3H-TdR): None of the compounds even in the final concentration of 10 µg/ml influenced the proliferation of the cells

CCCCCCCCCCCCCCCCCCCCCC[C@H](O)C(=O)N[C@@H](CO[C@H]1O[C@H](CO)[C@H](O)[C@H](O)[C@H]1O)[C@H](O)[C@H](O)CCCCCCCCCCCC(C)C [Compound 30, (2S,3S,4R)-1-(α-D-galactopyranosyloxy)-2-[(S)-2-hydroxytetracosanoylamino]-16-methyl-3,4-heptadecanediol]
influence on the proliferation of the cells (uptake of ^3H-TdR): None of the compounds even in the final concentration of 10 µg/ml influenced the proliferation of the cells

CCCCCCCCCCCCCCCCCCCCCCCC(=O)N[C@@H](CO[C@H]1O[C@H](CO)[C@H](O)[C@H](O)[C@H]1O)[C@H](O)[C@H](O)CCCCCCCCCCCC(C)C [Compound 31, (2S,3S,4R)-1-(α-D-galactopyranosyloxy)-16-methyl-2-tetracosanoylamino-3,4-heptadecanediol]
influence on the proliferation of the cells (uptake of ^3H-TdR): None of the compounds even in the final concentration of 10 µg/ml influenced the proliferation of the cells

CCCCCCCCCCCCCCCCCCCCCCC[C@@H](O)C(=O)N[C@@H](CO[C@H]1O[C@H](CO)[C@H](O)[C@H](O)[C@H]1O)[C@H](O)[C@H](O)CCCCCCCCCCCC(C)CC (stereo partly drawn) [Compound 34, (2S,3S,4R)-1-(α-D-galactopyranosyloxy)-2-[(R)-2-hydroxypentacosanoylamino]-16-methyl-3,4-octadecanediol]
influence on the proliferation of the cells (uptake of ^3H-TdR): None of the compounds even in the final concentration of 10 µg/ml influenced the proliferation of the cells

CCCCCCCCCCCCC/C=C/[C@@H](O)[C@H](CO[C@H]1O[C@H](CO)[C@H](O)[C@H](O)[C@H]1O)NC(=O)CCCCCCCCCCCCC [Compound 35, (2S,3R,4E)-1-(α-D-galactopyranosyloxy)-2-tetradecanoylamino-4-octadecen-3-ol]
influence on the proliferation of the cells (uptake of ^3H-TdR): None of the compounds even in the final concentration of 10 µg/ml influenced the proliferation of the cells

(2S,3S,4R)-1-(α-D-galactopyranosyloxy)-2-[(R)-2-hydroxytetracosanoylamino]-3,4-heptadecanediol [Compound 22]
influence on the proliferation of the cells (uptake of ^3H-TdR): None of the compounds even in the final concentration of 10 µg/ml influenced the proliferation of the cells

(2S,3S,4R)-1-(α-D-galactopyranosyloxy)-2-[(R)-2-hydroxytricosanoylamino]-16-methyl-3,4-heptadecanediol [Compound 33]
influence on the proliferation of the cells (uptake of ^3H-TdR): None of the compounds even in the final concentration of 10 µg/ml influenced the proliferation of the cells
